# At least one compound was matched to its structure with a doubt left.
# Test system: P388
# Experiment: Murine P388 Leukemia
# Format: in vivo, CD2F1 mice
# Details: P388, 25 mg/kg i.p., days 1,5,9
# Experimental: CD2F1 mice are injected i.p. with 1 x 10^6 tumor cells on Day 0 of the test. Drugs are administered i.p. on Days 1, 5, and 9 after the tumor implantation. Positive drug response is indicated by a more than 25% increase in the mean life span (% ILS), relative to placebo treated controls. Drugs are considered to be toxic when the mean life span of the drug treated animals is more than 15% shorter than placebo treated controls.
structure (smiles),measurement,value
"CN(C)CCNC(=O)c1cccn2c(=O)c3cc(-c4cccc(N)c4)ccc3nc12 [Example 13, 11H-Pyrido[2,1-b]quinazoline-6-carboxamide, 2-(3-aminophenyl)-N-[2-(dimethyl-amino)ethyl]-11-oxo]",% ILS,- +4%

# From patent EP0944629B1, “BIARYL-PYRIDOQUINAZOLINONE DERIVATIVES AS ANTI-CANCER AGENTS” (American Cyanamid Company, priority 1996, dated 1998)
